# Experimental data as given in US20100130603A1, “MEDICAMENT FOR PROPHYLACTIC AND THERAPEUTIC TREATMENT OF DERMATOSIS RESULTING FROM EXCESSIVELY ADVANCED KERATINIZATION” (KYOTO UNIVERSITY, priority 2007, published 2010).
# At least one compound was matched to its structure with a doubt left. Some compounds share one wording; it may come from a single statement.
# System: Serca2 gene
# Assay: Serca2 mRNA induction in normal human epidermal keratinocytes (NHEK), Northern blotting
# Type: cell-based
# Conditions: vanilloid agonists
# Protocol: Normal human epidermal keratinocytes (NHEK) were cultured in a serum-free medium (KGM medium) from which only hydrocortisone was excluded. A test substance dissolved in dimethyl sulfoxide (DMSO) as a solvent was added to the medium and culture was continued, and amount of mRNA of Serca2 gene in the epidermal keratinocytes was quantified by Northern blotting after 3, 6, and 9 hours. […] RNA was extracted 0, 3, 6, 12, 18, 24, and 48 hours after the addition of WiN55,212-2 to the epidermal keratinocytes, and expression of Serca2 gene was observed by Northern blotting.
# Test substances including various kinds of vanilloid agonists were examined in the same manner as that of Example 1.
compound,measurement,setting,value
CC/C=C\C/C=C\C/C=C\CCCCCCCC(=O)NCCc1ccc(O)c(O)c1 [linoleoyldopamine],strength of Serca2 gene inducing action,comparison among inducers,potent inducing action
same,induction of Serca2 gene (mRNA),same manner as Example 1,induced the Serca2 gene
